Data as given in paper doi:10.1101/2024.05.16.594391.
Results are given in words; binding and its absence hold for the method and conditions named. In cells and extracts the contact can be indirect. Some entries that bind do so weakly or less than the wild type. Sequences can lack the tags named with a protein.

Target: mitochondrial thioredoxin reductase (TXNRD2), V5-tagged (human) (UniProt Q9NNW7)
Experiment: co-IP

B1: mitochondrial thioredoxin (TXN2), myc-tagged (protein, UniProt Q99757 60-166)
chain: TTFNIQDGPDFQDRVVNSETPVVVDFHAQWCGPCKILGPRLEKMVAKQHGKVVMAKVDIDDHTDLAIEYEVSAVPTVLAMKNGDVVDKFVGIKDEDQLEAFLKKLIG
  binding: binds
